## Screening data, single-dose tests

Values are the deposited “Percent Effect”, in %. How 0% and 100% were set is not recorded. Most values in the screen are low, and negative values occur. This is an unselected part of the compounds tested.

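Whole-parasite assay of Trypanosoma brucei over 72 hours; the read-out is not stated. Concentration: 10 µM. Higher reads as stronger inhibition (inferred: compounds with an IC50 in retests scored well above the rest). Values scatter widely below zero; nearly all retest evidence comes from the higher of the two concentrations used. About 2,700 compounds were tested under these conditions; 0.51% (about 14) showed 50% or more at least once.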

| # | Compound | Percent Effect |
|---|---|---|
| 1 | `Clc1ccc(CN2CCCC2Cn2cncn2)c2ncccc12` (configuration not stated) | -34.99 |
| 2 | `CC(C)OCCCNC(=O)CS(=O)(=O)Cc1cccc(Cl)c1` | -51.87 |
| 3 | `O=C(Nc1ccccc1)N1CCN(Cc2noc(C3CC3)n2)CC1` | -29.44 |
| 4 | `COc1ccc(-c2nnc(CNCCn3cc(C)cn3)o2)cc1` | -27.8 |
| 5 | `Cc1cc(NC(=O)CN2CCC(N3CCNC3=O)CC2)on1` | -33.77 |
| 6 | `CC(Cn1ccnc1)NC(=O)NCCc1cccnc1` (configuration not stated) | -37.37 |
| 7 | `c1coc(-c2noc(CN3CCc4cncnc4C3)n2)c1` | -77.85 |
| 8 | `Cc1cc(C(=O)NCc2ccnc(N3CCN(C)CC3)c2)no1` | -47.35 |
| 9 | `COc1ccc(CNC(=O)NCCCNS(C)(=O)=O)cc1OC` | -21.43 |
| 10 | `CC(c1nc(C2CC2)no1)N1CCN(Cc2nnc(C3CC3)o2)CC1` (configuration not stated) | -28.24 |
| 11 | `CCC(O)CN1CCN(C(=O)Cc2cc(C)ccc2OC)CC1` (configuration not stated) | -62.43 |
| 12 | `CCc1nc(CC(=O)N2CCn3c(C)nnc3C2)cs1` | -45.29 |
| 13 | `Cc1nc2cc(=O)[nH]n2c(C)c1CC(=O)NCCCc1ccccc1` | -66.11 |
| 14 | `O=C(c1ccc(Cn2ccccc2=O)o1)N1CCSCC1` | -71.02 |
| 15 | `COc1ccc(C(=O)N2CCCS2(=O)=O)cc1` | -40.85 |
| 16 | `CC(C)Oc1ncccc1CNC(=O)Nc1ccccn1` | -7.942 |
| 17 | `Cc1cnn(CC2CCCN2C(=O)c2cccc3[nH]ncc23)c1` (configuration not stated) | -58.14 |
| 18 | `COc1ncccc1CNC(=O)c1ccco1` | -15.28 |
| 19 | `CSC(C)C(=O)N1CCCN(Cc2nccn2C)CC1` (configuration not stated) | -20.31 |
| 20 | `c1cnn(CC2CCCCN2Cc2nc(-c3ccsc3)no2)c1` (configuration not stated) | -7.482 |
| 21 | `COc1ncccc1CNC(=O)NCc1ccco1` | -3.742 |
| 22 | `Cc1ccc(C)c(S(=O)(=O)CCNC2CCc3ncnn3C2)c1` (configuration not stated) | -33.46 |
| 23 | `Clc1cc(CN2CCCCC2Cn2cncn2)c2ncccc2c1` (configuration not stated) | -80.03 |
| 24 | `Cc1ccsc1CNC(=O)N1CCC(Cc2cnn(C)c2)C1` (configuration not stated) | -17.13 |
| 25 | `CNS(=O)(=O)CCCN1CCCC1c1noc(C)n1` (configuration not stated) | -45.03 |
| 26 | `O=C(CC1CCCCC1)NC1CCCCNC1=O` (configuration not stated) | -40.55 |
| 27 | `Cc1ccc(CNc2cc(N3CCCC3CO)ncn2)s1` (configuration not stated) | -22.47 |
| 28 | `COCCN1CCCC1Cn1nc(C)cc1C` (configuration not stated) | -6.177 |
| 29 | `Cc1nccn1C1CCCN(C(=O)c2cc(Cl)c3c(c2)OCO3)C1` (configuration not stated) | -6.174 |
| 30 | `CCc1ncc2c(n1)CN(CC(=O)Nc1cc(C)no1)CC2` | -17.53 |
| 31 | `Cc1cc(C(=O)N2CCCCC2C)ccc1NC(=O)N1CCOCC1` (configuration not stated) | -42.31 |
| 32 | `Cc1cc(C)n(CC2CCCN2Cc2nc(N)c3ccccc3n2)n1` (configuration not stated) | 0.772 |
| 33 | `CCc1nc(C2CCCN2Cc2cc(C)nc3ccccc23)no1` (configuration not stated) | -23.1 |
| 34 | `Cc1cnn(CC2CCCCN2C(=O)c2ccc3[nH]c(=O)[nH]c3c2)c1` (configuration not stated) | -33.82 |
| 35 | `CCc1nc(C2CCCN2C(=O)c2cnc[nH]2)no1` (configuration not stated) | -19.69 |
| 36 | `O=C1NCCN1C1CCN(CCOc2ccccc2Cl)CC1` | -43.29 |
| 37 | `CN(Cc1cnn(C)c1)C(=O)NCc1ccc2c(c1)OCCO2` | -37.34 |
| 38 | `Cc1nn(C)c(C)c1C1CCCN1C(=O)c1cnccn1` (configuration not stated) | -8.951 |

4 of the entries, repeated:

Compound	Percent Effect
COc1ncccc1CNC(=O)NCc1ccco1	-3.742
O=C1NCCN1C1CCN(CCOc2ccccc2Cl)CC1	-43.29
CSC(C)C(=O)N1CCCN(Cc2nccn2C)CC1 (configuration not stated)	-20.31
Cc1nccn1C1CCCN(C(=O)c2cc(Cl)c3c(c2)OCO3)C1 (configuration not stated)	-6.174

The values are deposited in ChEMBL (CHEMBL3988442, “University of Dundee, Small-Polar-MMV Screening Library” (2021)).